Publication doi:10.1101/404863
No constants are given. Whether binding was seen depends on the method and setting. In cells and extracts the contact can be indirect. Some entries that bind do so weakly or less than the wild type.

B1: Drosophila Troponin I (protein, UniProt P36188 1-269)
chain: MADDEKKAAAPAAAPAAAAKPAAPAAAPAANGKAAPAANGKAAPAAAAAPAGPPKDPNDPKVKAEEAKKAKQAEIERKRAEVRKRMEEASKAKKAKKGFMTPERKKKLRLLLRKKAAEELKKEQERKAAERRRIIEERCGSPRNLSDASEGELQEICEEYYERMYICEGQKWDLEYEVRKKDWEINDLNAQVNDLRGKFVKPALKKVSKYENKFAKLQKKAAEFNFRNQLKVVKKKEFTLEEEEKEKKPDWSKGKPGDAKVKEEVEAEA
B2: disc large (Dlg) (protein, UniProt P31007 1-970)
chain: MPVKKQEAHRALELLEDYHARLSEPQDRALRIAIERVIRIFKSRLFQALLDIQEFYELTLLDDSKSIQQKTAETLQIATKWEKDGQAVKIADFIKSSNLNRNCAYEFNNDASSNQTNQSALNQNPIANNVSAQAQAEALSRTFKSELEEILNQRMRIESDTENAKEPTVEQQQKQQQAQQRSSRSPQQQNPQQQQGSKSRSGSQTVNGDDSWLYEDIQLERGNSGLGFSIAGGTDNPHIGTDTSIYITKLISGGAAAADGRLSINDIIVSVNDVSVVDVPHASAVDALKKAGNVVKLHVKRKRGTATTPAAGSAAGDARDSAASGPKVIEIDLVKGGKGLGFSIAGGIGNQHIPGDNGIYVTKLMDGGAAQVDGRLSIGDKLIAVRTNGSEKNLENVTHELAVATLKSITDKVTLIIGKTQHLTTSASGGGGGGLSSGQQLSQSQSQLATSQSQSQVHQQQHATPMVNSQSTEPGSRYASTNVLAAVPPGTPRAVSTEDITREPRTITIQKGPQGLGFNIVGGEDGQGIYVSFILAGGPADLGSELKRGDQLLSVNNVNLTHATHEEAAQALKTSGGVVTLLAQYRPEEYNRFEARIQELKQQAALGAGGSGTLLRTTQKRSLYVRALFDYDPNRDDGLPSRGLPFKHGDILHVTNASDDEWWQARRVLGDNEDEQIGIVPSKRRWERKMRARDRSVKFQGHAAANNNLDKQSTLDRKKKNFTFSRKFPFMKSRDEKNEDGSDQEPFMLCYTQDDANAEGASEENVLSYEAVQRLSINYTRPVIILGPLKDRINDDLISEYPDKFGSCVPHTTRPKREYEVDGRDYHFVSSREQMERDIQNHLFIEAGQYNDNLYGTSVASVREVAEKGKHCILDVSGNAIKRLQVAQLYPVAVFIKPKSVDSVMEMNRRMTEEQAKKTYERAIKMEQEFGEYFTGVVQGDTIEEIYSKVKSMIWSQSGPTIWVPSKESL
B3: atypical PKC (aPKC) (protein, UniProt A1Z9X0 1-606)
chain: MQKMPSQILNDGSSVSLNSASMNMANTPNSITVKTAYNGQIIITTINKNISYEELCYEIRNICRFPLDQPFTIKWVDEENDPCTISTKMELDEAIRLYEMNFDSQLVIHVFPNVPQAPGLSCDGEDRSIYRRGARRWRKLYRVNGHIFQAKRFNRRAFCAYCQDRIWGLGRQGFKCIQCKLLVHKKCHKLVQKHCTDQPEPLVKERAEESSDPIPVPLPPLPYEAMSGGAEACETHDHAHIVAPPPPEDPLEPGTQRQYSLNDFELIRVIGRGSYAKVLMVELRRTRRIYAMKVIKKALVTDDEDIDWVQTEKHVFETASNHPFLVGLHSCFQTPSRLFFVIEFVRGGDLMYHMQRQRRLPEEHARFYAAEISLALNFLHEKGIIYRDLKLDNVLLDHEGHIKLTDYGMCKEGIRPGDTTSTFCGTPNYIAPEILRGEDYGFSVDWWALGVLLYEMLAGRSPFDLAGASENPDQNTEDYLFQVILEKTIRIPRSLSVRAASVLKGFLNKNPADRLGCHRESAFMDIVSHPFFKNMDWELLERKQVTPPFKPRLDSDRDLANFPPEFTGEAVQLTPDDDHVIDNIDQSEFEGFEYVNPLLMSLEDCV

Tests used:
[1] = biological target: T1, disc large (Dlg) (Drosophila (endogenous in Canton-S flies)) (UniProt P31007); test: co-IP
T1 sequence: B2 chain

[2] = biological target: T2, Drosophila Troponin I (Drosophila (endogenous in Canton-S flies)) (UniProt P36188); test: co-IP
T2 sequence: B1 chain

Binder	binding [1]	binding [2]
B1	binds	
B2		binds
B3		binds
